Data reported in PMC3908380.

Sequences of proteins named here, by UniProt entry; tags and fusion partners are left off.
UniProt P92177: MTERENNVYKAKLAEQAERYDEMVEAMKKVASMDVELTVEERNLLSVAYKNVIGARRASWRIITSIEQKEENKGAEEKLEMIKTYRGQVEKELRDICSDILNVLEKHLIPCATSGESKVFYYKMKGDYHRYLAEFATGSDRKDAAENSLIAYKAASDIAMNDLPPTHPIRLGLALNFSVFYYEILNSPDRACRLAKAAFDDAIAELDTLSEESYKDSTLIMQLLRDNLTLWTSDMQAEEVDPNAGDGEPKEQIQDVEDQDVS

T1: chico (Drosophila Melanogaster) (UniProt Q9XTN2)
T1 sequence: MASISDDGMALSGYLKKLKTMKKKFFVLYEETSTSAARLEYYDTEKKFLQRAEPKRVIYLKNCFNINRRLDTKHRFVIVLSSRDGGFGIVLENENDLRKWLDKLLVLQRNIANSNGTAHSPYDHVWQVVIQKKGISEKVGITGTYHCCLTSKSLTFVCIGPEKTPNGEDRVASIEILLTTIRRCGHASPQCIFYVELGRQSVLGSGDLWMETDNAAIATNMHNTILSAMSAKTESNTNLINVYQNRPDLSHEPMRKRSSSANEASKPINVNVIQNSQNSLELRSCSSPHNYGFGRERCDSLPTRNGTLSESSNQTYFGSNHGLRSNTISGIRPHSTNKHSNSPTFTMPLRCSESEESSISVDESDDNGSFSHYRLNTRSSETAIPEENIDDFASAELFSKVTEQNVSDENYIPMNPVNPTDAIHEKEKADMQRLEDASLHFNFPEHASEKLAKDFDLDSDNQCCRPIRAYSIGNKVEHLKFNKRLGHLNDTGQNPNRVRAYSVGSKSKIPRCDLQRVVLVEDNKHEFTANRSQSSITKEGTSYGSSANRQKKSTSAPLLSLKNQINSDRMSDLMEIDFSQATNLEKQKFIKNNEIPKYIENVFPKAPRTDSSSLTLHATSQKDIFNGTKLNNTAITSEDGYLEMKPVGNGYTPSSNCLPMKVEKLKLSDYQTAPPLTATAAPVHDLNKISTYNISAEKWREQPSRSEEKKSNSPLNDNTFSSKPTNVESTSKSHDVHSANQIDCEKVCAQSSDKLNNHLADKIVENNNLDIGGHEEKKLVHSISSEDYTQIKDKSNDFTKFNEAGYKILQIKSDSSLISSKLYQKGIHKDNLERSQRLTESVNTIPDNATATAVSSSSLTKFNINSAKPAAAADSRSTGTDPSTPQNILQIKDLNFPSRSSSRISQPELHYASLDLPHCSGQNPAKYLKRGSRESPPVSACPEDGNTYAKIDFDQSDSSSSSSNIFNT

T2: Pi3K92E (Drosophila Melanogaster) (UniProt P91634)
T2 sequence: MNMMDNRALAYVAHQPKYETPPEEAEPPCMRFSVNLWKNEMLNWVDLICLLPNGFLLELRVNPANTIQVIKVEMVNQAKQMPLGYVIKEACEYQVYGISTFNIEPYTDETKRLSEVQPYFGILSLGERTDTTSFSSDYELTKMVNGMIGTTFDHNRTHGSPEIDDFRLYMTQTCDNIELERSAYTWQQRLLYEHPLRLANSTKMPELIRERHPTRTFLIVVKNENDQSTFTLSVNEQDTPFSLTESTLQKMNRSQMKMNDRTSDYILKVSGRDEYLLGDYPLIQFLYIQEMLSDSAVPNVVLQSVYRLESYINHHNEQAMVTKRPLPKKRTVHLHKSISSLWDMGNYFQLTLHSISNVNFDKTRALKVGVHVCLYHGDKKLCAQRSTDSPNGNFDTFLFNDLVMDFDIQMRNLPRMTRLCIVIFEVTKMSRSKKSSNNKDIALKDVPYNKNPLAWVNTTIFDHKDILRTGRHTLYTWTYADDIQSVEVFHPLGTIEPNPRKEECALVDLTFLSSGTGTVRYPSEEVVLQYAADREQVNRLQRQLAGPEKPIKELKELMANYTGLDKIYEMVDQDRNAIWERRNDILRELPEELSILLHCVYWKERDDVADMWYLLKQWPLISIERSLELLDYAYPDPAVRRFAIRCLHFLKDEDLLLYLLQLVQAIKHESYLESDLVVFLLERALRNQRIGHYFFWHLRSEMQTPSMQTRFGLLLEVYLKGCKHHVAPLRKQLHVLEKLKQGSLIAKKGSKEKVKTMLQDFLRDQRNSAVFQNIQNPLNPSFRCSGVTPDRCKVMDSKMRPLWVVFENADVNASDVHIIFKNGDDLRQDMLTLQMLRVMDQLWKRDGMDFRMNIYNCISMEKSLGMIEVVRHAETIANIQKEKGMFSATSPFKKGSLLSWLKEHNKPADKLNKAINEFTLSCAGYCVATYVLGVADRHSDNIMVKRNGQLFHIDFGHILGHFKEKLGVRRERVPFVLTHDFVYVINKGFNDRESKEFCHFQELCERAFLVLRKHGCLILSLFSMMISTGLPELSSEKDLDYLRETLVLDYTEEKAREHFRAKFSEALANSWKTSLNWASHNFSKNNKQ

T3: Thor (Drosophila Melanogaster) (UniProt Q9XZ56)
T3 sequence: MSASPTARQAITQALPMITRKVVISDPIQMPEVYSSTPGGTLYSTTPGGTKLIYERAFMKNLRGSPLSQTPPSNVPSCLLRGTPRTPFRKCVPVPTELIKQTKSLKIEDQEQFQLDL

B1: Pi3K92E (enzyme, UniProt P91634 1-1088)
chain: T2 sequence
B2: eIF-4E (protein, UniProt P48598 1-259)
chain: MQSDFHRMKNFANPKSMFKTSAPSTEQGRPEPPTSAAAPAEAKDVKPKEDPQETGEPAGNTATTTAPAGDDAVRTEHLYKHPLMNVWTLWYLENDRSKSWEDMQNEITSFDTVEDFWSLYNHIKPPSEIKLGSDYSLFKKNIRPMWEDAANKQGGRWVITLNKSSKTDLDNLWLDVLLCLIGEAFDHSDQICGAVINIRGKSNKISIWTADGNNEEAALEIGHKLRDALRLGRNNSLQYQLHKDTMVKQGSNVKSIYTL
B3: 14-3-3zeta (protein, UniProt P29310 1-248)
chain: MSTVDKEELVQKAKLAEQSERYDDMAQAMKSVTETGVELSNEERNLLSVAYKNVVGARRSSWRVISSIEQKTEASARKQQLAREYRERVEKELREICYEVLGLLDKYLIPKASNPESKVFYLKMKGDYYRYLAEVATGDARNTVVDDSQTAYQDAFDISKGKMQPTHPIRLGLALNFSVFYYEILNSPDKACQLAKQAFDDAIAELDTLNEDSYKDSTLIMQLLRDNLTLWTSDTQGDEAEPQEGGDN
B4: InR (receptor, UniProt P09208 1086-2144)
chain: DVALEPELDDVEGSVLLRHVRSITDDTDAFFEKDDENTYKDEEDLSSNKQFYEVFAKELPPNQTHFVFEKLRHFTRYAIFVVACREEIPSEKLRDTSFKKSLCSDYDTVFQTTKRKKFADIVMDLKVDLEHANNTESPVRVRWTPPVDPNGEIVTYEVAYKLQKPDQVEEKKCIPAADFNQTAGYLIKLNEGLYSFRVRANSIAGYGDFTEVEHIKVEPPPSYAKVFFWLLGIGLAFLIVSLFGYVCYLHKRKVPSNDLHMNTEVNPFYASMQYIPDDWEVLRENIIQLAPLGQGSFGMVYEGILKSFPPNGVDRECAIKTVNENATDRERTNFLSEASVMKEFDTYHVVRLLGVCSRGQPALVVMELMKKGDLKSYLRAHRPEERDEAMMTYLNRIGVTGNVQPPTYGRIYQMAIEIADGMAYLAAKKFVHRDLAARNCMVADDLTVKIGDFGMTRDIYETDYYRKGTKGLLPVRWMPPESLRDGVYSSASDVFSFGVVLWEMATLAAQPYQGLSNEQVLRYVIDGGVMERPENCPDFLHKLMQRCWHHRSSARPSFLDIIAYLEPQCPNSQFKEVSFYHSEAGLQHREKERKERNQLDAFAAVPLDQDLQDREQQEDATTPLRMGDYQQNSSLDQPPESPIAMVDDQGSHLPFSLPSGFIASSTPDGQTVMATAFQNIPAAQGDISATYVVPDADALDGDRGYEIYDPSPKCAELPTSRSGSTGGGKLSGEQHLLPRKGRQPTIMSSSMPDDVIGGSSLQPSTASAGSSNASSHTGRPSLKKTVADSVRNKANFINRHLFNHKRTGSNASHKSNASNAPSTSSNTNLTSHPVAMGNLGTIESGGSGSAGSYTGTPRFYTPSATPGGGSGMAISDNPNYRLLDESIASEQATILTTSSPNPNYEMMHPPTSLVSTNPNYMPMNETPVQMAGVTISHNPNYQPMQAPLNARQSQSSSDEDNEQEEDDEDEDDDVDDEHVEHIKMERMPLSRPRQRALPSKTQPPRSRSVSQTRKSPTNPNSGIGATGAGNRSNLLKENWLRPASTPRPPPPNGFIGREA

Key:
Assay in all cases: affinity purification with mass spectrometry; TAP/MS of the Drosophila Insulin pathway dataset: TAP-tagged bait pulled down via its tag from cell lysates, peptides identified by MS, spectral counts in replicates; time points 0, 10 and 30 minutes; negative control purifications; bait-prey pairs scored as significant by PPIRank (and SAINT)
[1] = biological target: T1, chico (Drosophila Melanogaster)
[2] = biological target: T2, Pi3K92E (Drosophila Melanogaster)
[3] = biological target: Pi3K21B (Drosophila Melanogaster)
[4] = biological target: T3, Thor (Drosophila Melanogaster)

Molecule	binding [1]	also measured
14-3-3epsilon (from UniProt P92177 1-262)	binds	
Pi3K21B (Drosophila Melanogaster)	binds	binding [2]: binds
B1		binding [3]: binds
B2		binding [4]: binds
B3	binds	
B4	binds	

Results are given in words; binding and its absence hold for the method and conditions named. In cells and extracts the contact can be indirect. These calls come from enrichment with a bait or labelling near it, and not all partners need be listed.
